Measurements reported in article PMC4489720.
These are yes or no findings as the source states them, for the method shown. Binding seen in cells or lysates may run through a third protein. Here binding means that the protein was enriched with, or labelled near, the bait; the list need not be complete. No binding means not detected with the bait.

Target: recombinant, His-tagged DBL domain (DBLβ3_D5) of the PfEMP1 protein PFD1235w (P. falciparum)
Assay: affinity purification with mass spectrometry; FV6 or PFD1235w DBLβ3_D5 (100 μg) coupled to M-270 epoxy Dynabeads; non-heat-inactivated human serum 500 μL, 1 h, 4°C; washed in NaPO4 buffer with 0.05% Tween 20; eluted in citrate pH 3.1; 2D gel, silver stain, MALDI TOF/TOF of spots; only the target purified

B1: α2-macroglobulin (α2M), native (protein, UniProt P01023 24-1474)
chain: SVSGKPQYMVLVPSLLHTETTEKGCVLLSYLNETVTVSASLESVRGNRSLFTDLEAENDVLHCVAFAVPKSSSNEEVMFLTVQVKGPTQEFKKRTTVMVKNEDSLVFVQTDKSIYKPGQTVKFRVVSMDENFHPLNELIPLVYIQDPKGNRIAQWQSFQLEGGLKQFSFPLSSEPFQGSYKVVVQKKSGGRTEHPFTVEEFVLPKFEVQVTVPKIITILEEEMNVSVCGLYTYGKPVPGHVTVSICRKYSDASDCHGEDSQAFCEKFSGQLNSHGCFYQQVKTKVFQLKRKEYEMKLHTEAQIQEEGTVVELTGRQSSEITRTITKLSFVKVDSHFRQGIPFFGQVRLVDGKGVPIPNKVIFIRGNEANYYSNATTDEHGLVQFSINTTNVMGTSLTVRVNYKDRSPCYGYQWVSEEHEEAHHTAYLVFSPSKSFVHLEPMSHELPCGHTQTVQAHYILNGGTLLGLKKLSFYYLIMAKGGIVRTGTHGLLVKQEDMKGHFSISIPVKSDIAPVARLLIYAVLPTGDVIGDSAKYDVENCLANKVDLSFSPSQSLPASHAHLRVTAAPQSVCALRAVDQSVLLMKPDAELSASSVYNLLPEKDLTGFPGPLNDQDNEDCINRHNVYINGITYTPVSSTNEKDMYSFLEDMGLKAFTNSKIRKPKMCPQLQQYEMHGPEGLRVGFYESDVMGRGHARLVHVEEPHTETVRKYFPETWIWDLVVVNSAGVAEVGVTVPDTITEWKAGAFCLSEDAGLGISSTASLRAFQPFFVELTMPYSVIRGEAFTLKATVLNYLPKCIRVSVQLEASPAFLAVPVEKEQAPHCICANGRQTVSWAVTPKSLGNVNFTVSAEALESQELCGTEVPSVPEHGRKDTVIKPLLVEPEGLEKETTFNSLLCPSGGEVSEELSLKLPPNVVEESARASVSVLGDILGSAMQNTQNLLQMPYGCGEQNMVLFAPNIYVLDYLNETQQLTPEIKSKAIGYLNTGYQRQLNYKHYDGSYSTFGERYGRNQGNTWLTAFVLKTFAQARAYIFIDEAHITQALIWLSQRQKDNGCFRSSGSLLNNAIKGGVEDEVTLSAYITIALLEIPLTVTHPVVRNALFCLESAWKTAQEGDHGSHVYTKALLAYAFALAGNQDKRKEVLKSLNEEAVKKDNSVHWERPQKPKAPVGHFYEPQAPSAEVEMTSYVLLAYLTAQPAPTSEDLTSATNIVKWITKQQNAQGGFSSTQDTVVALHALSKYGAATFTRTGKAAQVTIQSSGTFSSKFQVDNNNRLLLQQVSLPELPGEYSMKVTGEGCVYLQTSLKYNILPEKEEFPFALGVQTLPQTCDEPKAHTSFQISLSVSYTGSRSASNMAIVDVKMVSGFIPLKPTVKMLERSNHVSRTEVSSNHVLIYLDKVSNQTLSLFFTVLQDVPVRDLKPAIVKVYDYYETDEFAIAEYNAPCSKDLGNA
B1 was tested, and the binding was “no binding”.
